From article PMC7819943, “Rice protein-binding microarrays: a tool to detect cis-acting elements near promoter regions in rice”
This is one part of the list.

Protein sequences, listed by entry. Tags and fused reporters are not part of them.
UniProt Q0JBA9, entry or part of it: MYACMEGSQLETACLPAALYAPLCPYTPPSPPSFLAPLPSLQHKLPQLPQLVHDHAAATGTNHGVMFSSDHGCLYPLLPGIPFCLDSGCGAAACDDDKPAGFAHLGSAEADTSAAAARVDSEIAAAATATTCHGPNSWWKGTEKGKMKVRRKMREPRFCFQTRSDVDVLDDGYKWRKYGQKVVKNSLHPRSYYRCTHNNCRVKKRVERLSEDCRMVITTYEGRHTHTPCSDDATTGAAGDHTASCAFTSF

Target: OsWRKY34 (Oryza sativa, UniProt Q0JBA9 1-250)
Assay: protein-binding microarray (RPBM); PBS, 2% BSA, 51.3 ng/ul salmon testes DNA, 50 uM zinc acetate, 200 nM TF, 25 C, 1 h; high values mean tight binding
Details: protein: recombinant; tags: N-terminal polyhistidine and DsRed monomer fusion (pET32a); label: CyDye5-dUTP incorporated in the synthesized complementary strand; 3' TTTTT single-stranded linker to array surface; dsDNA, one strand shown
Outline: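 Binding signal here means per-feature fluorescence intensity in arbitrary units. The values were read on an Axon 4000B scanner after a custom Agilent array, double-stranded by primer extension with Cy5-dUTP, was incubated with 200 nM protein at 25 °C for 1 h in PBS with 2% BSA, salmon testes DNA and 50 µM zinc acetate, then washed. The proteins were transcription factors with an N-terminal polyhistidine tag and DsRed, expressed in E. coli BL21-CodonPlus and purified on Ni–NTA.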

Row | Sequence | binding signal
1 | ATTGATAGTCCCATTTTTCTGTGTATATAATCGACTAACTCGGAGTCACCTAGTGCAG | 8020 fluorescence intensity (a.u.)
2 | GTCGTTGATTTTTTTAAAAATGTTTAACCGTTCGTTTTATCGGAGTCACCTAGTGCAG | 8170 fluorescence intensity (a.u.)
3 | GGTTATACGAACCACACAAGCATCCAGCATGCAGTTCATCCGGAGTCACCTAGTGCAG | 8780 fluorescence intensity (a.u.)
4 | ATAGCTCTCGGCGAGGAGGTTTTGGTGGTGGTGGGAGATGCGGAGTCACCTAGTGCAG | 8690 fluorescence intensity (a.u.)
5 | CTCACTTGCATCTTTCCAATATCTTAGTCATTCATTAATACGGAGTCACCTAGTGCAG | 8520 fluorescence intensity (a.u.)
6 | AGGAATGGACATCTACTCACTGTCACCACAGCTCACGAGACGGAGTCACCTAGTGCAG | 8050 fluorescence intensity (a.u.)
7 | TCCGAACAGATATTTTTGTGGTTCATTGCTATGGATTTCTCGGAGTCACCTAGTGCAG | 8190 fluorescence intensity (a.u.)
8 | ACGTCCGGCTTTTGCATCTTCCTCGGCGACTCCCTCATCTCGGAGTCACCTAGTGCAG | 8660 fluorescence intensity (a.u.)
9 | TCACGCTCATCCTCTTCCTCATCTCTCTTTGCGGTCTTTACGGAGTCACCTAGTGCAG | 11000 fluorescence intensity (a.u.)
10 | CCACTAAAATTTTTATCCCTTGATAGCTTATAGTTTACTACGGAGTCACCTAGTGCAG | 8150 fluorescence intensity (a.u.)
11 | GTACTTCACCTCGTTTGTCCTCTTGCATAGCGATTTCTTTCGGAGTCACCTAGTGCAG | 11900 fluorescence intensity (a.u.)
12 | ATAATCCTGAGACTAATCCAACCTGCACGCACGCACTACTCGGAGTCACCTAGTGCAG | 8290 fluorescence intensity (a.u.)
13 | ACCTCGTTTTGCGTATCTTTCCAATCTTCTCTATCTCCTTCGGAGTCACCTAGTGCAG | 8630 fluorescence intensity (a.u.)
14 | CGGGAAGGGGAGAGGCCGTGTCGGGGAGGATAGTGGCGGCCGGAGTCACCTAGTGCAG | 9590 fluorescence intensity (a.u.)
15 | AGTACATCATTTCCCATTACATGTGGAGTCTCTGTCTCTGCGGAGTCACCTAGTGCAG | 8230 fluorescence intensity (a.u.)
16 | CACTGCTTTGGAACCATACTACGGCTTCTCCCACTTCACTCGGAGTCACCTAGTGCAG | 8110 fluorescence intensity (a.u.)
17 | GACACATCTTAGTTTCATGAATTTGCACAAGAATTGCATGCGGAGTCACCTAGTGCAG | 10800 fluorescence intensity (a.u.)
18 | CACACTCTCACTGTCCACGCTTGTCTTGGCCGCTTGACTACGGAGTCACCTAGTGCAG | 8280 fluorescence intensity (a.u.)
19 | AATTTTTGGCAGTATATGAGCTAGATTCATATGTACATCACGGAGTCACCTAGTGCAG | 8180 fluorescence intensity (a.u.)
20 | AAACTTTGACTTACTTAAAACAAGTCCAAAACTGCATGTCCGGAGTCACCTAGTGCAG | 8050 fluorescence intensity (a.u.)
21 | GATCAGGTGGGTTGGGTTGGACCCAGAAGGGAATATTCTCCGGAGTCACCTAGTGCAG | 9720 fluorescence intensity (a.u.)
22 | TCCCTCCATCCCAAAATGTTATCTTTGACGTCGTTGACTTCGGAGTCACCTAGTGCAG | 10900 fluorescence intensity (a.u.)
23 | ACCCACGACTCCGCAACTCTAGCTCGGCCCCGCGTCCCGCCGGAGTCACCTAGTGCAG | 8260 fluorescence intensity (a.u.)
24 | TGCTACAGTTAGTTTGTCTTTGTACTATCTCATGGTTTATCGGAGTCACCTAGTGCAG | 11600 fluorescence intensity (a.u.)
25 | CCACAAATTAATCCCGCATGCTCTTGGCATTTACCCACCACGGAGTCACCTAGTGCAG | 8460 fluorescence intensity (a.u.)
26 | CCTCCTCCGCCGCCCGCCGCGTCCGCCACTTCCATCGGAGCGGAGTCACCTAGTGCAG | 8030 fluorescence intensity (a.u.)
27 | TTTTTGCTGTTTTTAATGTAACTTTTTTCGAGAACATACCCGGAGTCACCTAGTGCAG | 11100 fluorescence intensity (a.u.)

Records 13 through 24, reprinted for reference:
Row | Sequence | binding signal
13 | ACCTCGTTTTGCGTATCTTTCCAATCTTCTCTATCTCCTTCGGAGTCACCTAGTGCAG | 8630 fluorescence intensity (a.u.)
14 | CGGGAAGGGGAGAGGCCGTGTCGGGGAGGATAGTGGCGGCCGGAGTCACCTAGTGCAG | 9590 fluorescence intensity (a.u.)
15 | AGTACATCATTTCCCATTACATGTGGAGTCTCTGTCTCTGCGGAGTCACCTAGTGCAG | 8230 fluorescence intensity (a.u.)
16 | CACTGCTTTGGAACCATACTACGGCTTCTCCCACTTCACTCGGAGTCACCTAGTGCAG | 8110 fluorescence intensity (a.u.)
17 | GACACATCTTAGTTTCATGAATTTGCACAAGAATTGCATGCGGAGTCACCTAGTGCAG | 10800 fluorescence intensity (a.u.)
18 | CACACTCTCACTGTCCACGCTTGTCTTGGCCGCTTGACTACGGAGTCACCTAGTGCAG | 8280 fluorescence intensity (a.u.)
19 | AATTTTTGGCAGTATATGAGCTAGATTCATATGTACATCACGGAGTCACCTAGTGCAG | 8180 fluorescence intensity (a.u.)
20 | AAACTTTGACTTACTTAAAACAAGTCCAAAACTGCATGTCCGGAGTCACCTAGTGCAG | 8050 fluorescence intensity (a.u.)
21 | GATCAGGTGGGTTGGGTTGGACCCAGAAGGGAATATTCTCCGGAGTCACCTAGTGCAG | 9720 fluorescence intensity (a.u.)
22 | TCCCTCCATCCCAAAATGTTATCTTTGACGTCGTTGACTTCGGAGTCACCTAGTGCAG | 10900 fluorescence intensity (a.u.)
23 | ACCCACGACTCCGCAACTCTAGCTCGGCCCCGCGTCCCGCCGGAGTCACCTAGTGCAG | 8260 fluorescence intensity (a.u.)
24 | TGCTACAGTTAGTTTGTCTTTGTACTATCTCATGGTTTATCGGAGTCACCTAGTGCAG | 11600 fluorescence intensity (a.u.)

Further entries follow.

Row | Sequence | binding signal
28 | CCACCTTCGCCGCCACCACCAAGCACATCGCCGTCCTCCACGGAGTCACCTAGTGCAG | 8160 fluorescence intensity (a.u.)
29 | GCACCGTGGGGACTGGGGATTGCCGATTCTTTTTTTTCCTCGGAGTCACCTAGTGCAG | 10800 fluorescence intensity (a.u.)
30 | GCTCCGTTAATTTTCGAAAGTTTGAATTTGATCAGGTAACCGGAGTCACCTAGTGCAG | 8180 fluorescence intensity (a.u.)
31 | ATTACCAAAAATCTCAACTTACATGCTGCGTACTCCATTTCGGAGTCACCTAGTGCAG | 8590 fluorescence intensity (a.u.)
32 | ATCCAGCACACTCTAATTCTATTTGTTCACATGTTGTTATCGGAGTCACCTAGTGCAG | 10000 fluorescence intensity (a.u.)
33 | AGTAATTGACTATATTATTGAACTTGCTCTTACACACGCACGGAGTCACCTAGTGCAG | 8730 fluorescence intensity (a.u.)
34 | CCACGAGCTATACCAAGTACTCTCTTTCTCACTCGATTGACGGAGTCACCTAGTGCAG | 9080 fluorescence intensity (a.u.)
35 | TATGTTTTGTATGGTGTGGTTCAACATTTGAACTATATAGCGGAGTCACCTAGTGCAG | 8930 fluorescence intensity (a.u.)
36 | CACGTTTCCATCTCCCTTGATGCAATTCACTAAACACAAACGGAGTCACCTAGTGCAG | 8100 fluorescence intensity (a.u.)
37 | AACTTTGTTCATTTCTTTTCAATTATTATTTGTGCTCTGACGGAGTCACCTAGTGCAG | 10200 fluorescence intensity (a.u.)
38 | CCCTTCGTCGCCGCTACTGCAGTGGCTACCCAAATCTCGCCGGAGTCACCTAGTGCAG | 8060 fluorescence intensity (a.u.)
39 | TTACTTCTACTCTTATTCATCATCCTCATCAAGCCCAATTCGGAGTCACCTAGTGCAG | 8240 fluorescence intensity (a.u.)
40 | ACCAACGAACGGACGCTGTCATGTCACCTCTCTTAATCTTCGGAGTCACCTAGTGCAG | 8610 fluorescence intensity (a.u.)
41 | GGTCTTGTCTGTTGTGTTAGCCATTTGTACCAACTCATGACGGAGTCACCTAGTGCAG | 12000 fluorescence intensity (a.u.)
42 | ACAAACCTATTTGTCTCTTGATCAACTCAACTGCTAAATTCGGAGTCACCTAGTGCAG | 8370 fluorescence intensity (a.u.)
43 | GCGCGGGCCCCACCCACCTCTTGGCCCATTCCCCAAGAAACGGAGTCACCTAGTGCAG | 8480 fluorescence intensity (a.u.)
44 | TTGGTGGACTTTTCGCTCGTTTGGTTGGCCAACCGAAAAACGGAGTCACCTAGTGCAG | 8180 fluorescence intensity (a.u.)
45 | TCATATCTCTTCTCTACCAATCATATTTATTCTTCATCTACGGAGTCACCTAGTGCAG | 9600 fluorescence intensity (a.u.)
46 | TGTCGCGAATTAGTCCAAGATTATGGATGGGTTTTTATTACGGAGTCACCTAGTGCAG | 9460 fluorescence intensity (a.u.)
47 | GCCCTGACCCGCCAAGTCGCGATCGCAACTCACACATGCTCGGAGTCACCTAGTGCAG | 10500 fluorescence intensity (a.u.)
48 | CTCACTTTTTTTCTCTTTTGGATTTCTTTCTGCCGTCATCCGGAGTCACCTAGTGCAG | 13900 fluorescence intensity (a.u.)
49 | AATTTTATGCAGGTGCTGTACCCTATGTGCTGCTTTTTTTCGGAGTCACCTAGTGCAG | 10300 fluorescence intensity (a.u.)
50 | CTCCCGTCTCGTCGTCTCCTCCGCTCCTTGCGCCATCTCGCGGAGTCACCTAGTGCAG | 11100 fluorescence intensity (a.u.)
51 | ATTAGTGGGCCAGTCTGCCATTGGACGCTTAGGTGCTTGTCGGAGTCACCTAGTGCAG | 8380 fluorescence intensity (a.u.)
52 | GTTTTTCCTTTTAAGGTGCTTATATTTCATCCAAAATTTTCGGAGTCACCTAGTGCAG | 9900 fluorescence intensity (a.u.)
53 | AGAGTTGTTTTGGGATTTTTTTTCATCGCGGTTTATTCTTCGGAGTCACCTAGTGCAG | 9310 fluorescence intensity (a.u.)
54 | AAGATTCTGGAACCTTCTAGACGCACCCGCTGCCCGTATACGGAGTCACCTAGTGCAG | 9700 fluorescence intensity (a.u.)
